The other results are listed elsewhere or left out. These are further read-outs of the screen, such as a control signal, another cell line or another target. No call is given for them. Most of these compounds were active or inconclusive in the main read-out, so they are no random draw.

The experiment in a line: insulin gene promoter suppression in islet cells – imaging, TRM-6 cells (human fetal islet line), eGFP reporter, cell count, primary screen (AID 1273;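 note: cells exposed to compound for 48 h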). The following applies: measured here: cell count, toxicity, at 2 µM.
Consider `CN1CCC(N(C)c2ncnc3ccc(Br)cc23)CC1`, for which the normalized cell count was found to be 153%.

The compound `Cn1c(=O)cc(SCC(=O)N2CCC3(CC2)OCCO3)c2ccc(Cl)cc21` came in with a normalized cell count of 136%. With `O=c1c2cc(Br)ccc2[nH]c(=S)n1-c1ccccc1` the figure was 165%. With `CC1CN(CCc2ccccc2)CC(C)O1` (stereo unspecified) the figure was 109%; with `O=C(c1cc2cc3ccc(Cl)cc3nc2o1)N1CCC2(CC1)OCCO2`, 143%; with `C[C@H]1O[C@@H](O[C@H]2[C@@H](O)C[C@H](O[C@H]3[C@@H](O)C[C@H](O[C@H]4CC[C@@]5(C)[C@H](CC[C@@H]6[C@@H]5CC[C@]5(C)[C@@H](C7=CC(=O)OC7)CC[C@]65O)C4)O[C@@H]3C)O[C@@H]2C)C[C@H](O)[C@@H]1O`, 0.41%.

As for `CC1=C(C(=O)N2CCC3(CC2)OCCO3)C2(CCC(C)CC2)OC1=O` (stereo unspecified), the normalized cell count is 78.6%. As to `CSc1ccc(C(c2c(O)c3ccccc3oc2=O)c2c(C)n(C)n(-c3ccccc3)c2=O)cc1` (stereo unspecified), the normalized cell count came out at 109%. As for `CCCCn1c(O)c(C(CC)=NCc2ccc(F)cc2)c(=O)[nH]c1=O`, the normalized cell count turned out to be 23.5%. The value for `c1ccc2c(c1)Nc1ccccc1S2` was 150%.

`N/C(=N/[N+](=O)[O-])N1CCN(C(=O)c2ccc(Cl)cc2)CC1` had a normalized cell count of 157%. With `Cc1cc2c(C(C)C)c(O)c(O)c(C=O)c2c(O)c1-c1c(C)cc2c(C(C)C)c(O)c(O)c(C=O)c2c1O` the figure was 46.3%.

Compound `CCn1c(O)c(C=Nc2cc(Cl)ccc2Cl)c(=O)n(CC)c1=O` showed a normalized cell count of 109%. The value for `CC(Cc1ccccc1)NC(=O)/C=C/C(=O)O` (stereo unspecified) was 55.8%; that for `CN1CSC(=S)N(C)C1` was 101%. `CC(C)(C)c1ccc(O)c(CN2CCN(c3ccccc3)CC2)c1` registered a normalized cell count of 62.8%. The compound `COc1ccc(N=Cc2c(O)n(-c3ccc(C)cc3)c(=O)[nH]c2=O)cc1` gave a normalized cell count of 77.5%.

In turn, `CCOC(=O)c1c(-c2ccccc2)oc2ccc(OC(=O)N(C)C)cc12` came in with a normalized cell count of 171%. Consider `Cc1nn(-c2ccccc2)c2c1C(c1ccc3c(c1)OCO3)SCC(=O)N2` (stereo unspecified), for which the normalized cell count was found to be 103%. With `Cc1ccccc1-n1c(-c2ccco2)nc2ccccc2c1=O` the figure was 180%. With `Cc1ccc(-c2cc(-c3ccc(C)cc3)[n+](C)o2)cc1` the figure was 83%; with `COc1ccc(C(=O)CN2CCOCC2)cc1F`, 48.3%. With `NC(=O)c1cn(C2OC(CO)C(O)C2O)c2ncnc(N)c12` (stereo unspecified) the figure was 4.29%. Compound `CC(=O)C1=C(C)OC(N)=C(C(=O)OC(C)C)C12C(=O)Nc1ccccc12` (stereo unspecified) returned a normalized cell count of 39.8%. As for `CCN1CCN(c2ncnc3ccc(Br)cc23)CC1`, the normalized cell count was 111%. With `COc1ccc(C(c2c(O)c3ccccc3oc2=O)c2c(C)n(C)n(-c3ccccc3)c2=O)cc1` (stereo unspecified) the figure was 74.8%; with `O=P(O)(O)COc1ccccc1O`, 67.2%; with `C=CCn1c(O)c(C(C)=Nc2ccc(C(=O)OCC)cc2)c(=O)[nH]c1=O`, 97.8%.

Compound `O=C(CCC(=O)N1CCC2(CC1)OCCO2)Nc1nnc(C(F)(F)F)s1` returned a normalized cell count of 75.9%.

`O=C(C1CC(=O)N(C2CCCCCCC2)C1)N1CCC2(CC1)OCCO2` (stereo unspecified) displayed a normalized cell count of 89.3%. With `CN(C)C(=S)SSC(=S)N(C)C` the figure was 0%; with `Cc1cc(C=O)c(C)n1C1CCCCC1`, 74.7%. With `CN(CC(=O)Nc1ccccc1-c1ccccc1)C1CCCCC1` the figure was 244%. The value for `CCCCn1c(O)c(C(C)=NC(C)c2ccccc2)c(=O)[nH]c1=O` (stereo unspecified) was 116%; that for `O=c1[nH]c2ccccc2c(=O)n1-c1cccc(Cl)c1` was 74.9%; that for `Fc1ccc(NC2=NCCS2)cc1Cl` was 113%. Take `CC12CN3CC(C)(CN(C1)C31CCOCC1)C2=O`: the normalized cell count was 123%.

As to `CC(=O)NC1CC2CCC(C1)N2` (stereo unspecified), the normalized cell count stood at 98.9%. With `CC(C)=CCC12CN3CCN(CC(C3)C1=O)C2` the figure was 98%; with `Nc1nnc(CCN2CCCCC2)s1`, 40.2%. For the compound `O=S(=O)(c1ccccc1)N1CN2CCN(C2)C1`, the normalized cell count worked out at 100%. With `CN(C)c1cccc2c(C#N)ccc(N(C)C)c12` the figure was 42.9%; with `CC(=O)Nc1ccccc1OP1(=O)COc2ccccc2OC1`, 40.3%; with `O=C(O)c1cccc2c1NC(c1cccc([N+](=O)[O-])c1)C1CC(Sc3ccccc3[N+](=O)[O-])C(Cl)C21` (stereo unspecified), 173%. Regarding `O=C1CC(C(=O)N2CCC3(CC2)OCCO3)CN1CCc1ccccc1` (stereo unspecified), the normalized cell count was 124%.

Compound `CCN1C(=O)C(=C2C=C(C)N(Cc3ccco3)C(C)=C2)C(=O)N(CC)C1=S` had a normalized cell count of 139%.

Source of the values: PubChem BioAssay AID1273 (Columbia University Molecular Screening Center, 2008).
